Results are given in words; binding and its absence hold for the method and conditions named. Binding seen in cells or lysates may run through a third protein. A result given as binding can be weak or reduced; the word gives no strength.
Molecular target: SVV 3C H48A/C160A (seneca valley virus protease 3C, catalytically inactive double mutant) (seneca valley virus (SVV))
Assay: co-IP; HEK-293T cells co-transfected with plasmids expressing pcGAS and 3C for 24 h, lysed with NP-40; supernatants immunoprecipitated with mouse anti-FLAG MAb and protein A/G plus-agarose for 6 h, beads washed three times with ice-cold PBS, immunoblot

B1: porcine cGAS (pcGAS) (enzyme, UniProt I3LM39 1-495)
chain: MAARRGKSTRTASEVGAAGPRASARSVNGAPTVPEAARPGARRNGPSRASGCRREKSGPDPREKPQVRTRTARAEDQAEGPSAPSERVEPPSAQGASLLRAGSCRAREARSARELRPQAGATELAAPARMEAPPGAWKLQTVLEKVRLSRHEISEAAEVVNWVVEHLLRRLQGGESEFKGVALLRTGSYYERVKISAPNEFDVMFKLEVPRIQLEEYCNSGAHYFVKFKRNPGGNPLEQFLEKEILSASKMLSKFRKIIKEEIKNIEGVTVERKRRGSPAVTLLISKPKEISVDIILALESKSSWPASTQKGLPISQWLGAKVKNNLKRQPFYLVPKHAKEGSGFQEETWRLSFSHIEKDILKNHGQSKTCCEIDGVKCCRKECLKLMKYLLEQLKKKFGNRRELAKFCSYHVKTAFFHVCTQDPHDNQWHLKNLECCFDNCVAYFLQCLKTEQLANYFIPGVNLFSRDLIDKPSKEFLSKQIEYERNNGFPVFW
Question: Which binding does the source give for B1 here?
Answer: binds

Source: publication PMC10521975, “Species-specific cleavage of cGAS by picornavirus protease 3C disrupts mitochondria DNA-mediated immune sensing”
